# Measurements: PubChem BioAssay AID624297 (National Center for Advancing Translational Sciences (NCATS), 2012)
# Screen size: about 340,000 compounds; about 6,200 (1.8%) were called active. Inconclusive results, whose numbers are uncertain, are shown with a selection of clear calls. Calls follow the shape of the dose curve; as a rule, active = well fitted activation curve with a large enough effect; inconclusive = small, poorly fitted or top-dose-only effect; inactive = no such curve, though single readings can be large or run the other way. Where the call is inconclusive, the potency comes from a doubtful curve fit.
# Assay: A quantitative high throughput screen for small molecules that induce DNA re-replication in SW480 colon adenocarcinoma cells. Also: nearly all actives have a fitted effect of over 55% in size. As to re-replication activation: % of control where 0% means no effect.
# Settings: Hoechst DNA content imaging, 48 h; re-replication activation: at 46.1 µM (top of the series) unless noted
# How it was run: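 250 cells/well; 23 nL cpd via pin tool; 48 hr, 37 C, 5% CO2; Hoechst 40 min; imager read of total nuclear intensity, ex 405/em 500-530 nm.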
# Potency is read from the fitted curve at half-maximal effect.
Compound,Potency,re-replication activation
CN(C)CCC1(C2=CCCC2)CC/C(=C/c2ccc(Cl)cc2)C1=O (stereo unspecified),"inconclusive: 23.1 µM [activator, single point]",
Cc1ccc(C)n1C1CCS(=O)(=O)C1 (stereo unspecified),"inconclusive: 35.5 µM [activator, single point]",
Nc1c(N(CCC2=CCCCC2)C(=O)Cc2ccc(F)cc2)c(=O)[nH]c(=O)n1Cc1ccccc1,"inconclusive: 20.6 µM [activator, single point]",
O=C(O)c1ccccc1C(=O)Nc1ccc(-c2csc(-c3ccccc3)n2)cc1,inactive,
O=C(Nc1nc(-c2ccccn2)cs1)c1cc2ccccc2o1,"inconclusive: 29.1 µM [activator, single point]",
c1ccc(Oc2ccc(-c3ccnc4nc(N5CCOCC5)nn34)cc2)cc1,active: 16.4 µM,
CC1CCN(c2ccc(C(=O)OCC(=O)NCCN3C(=O)CSC3=O)cc2[N+](=O)[O-])CC1,inactive,
COc1ccc(OC)c(C(c2nnnn2Cc2ccco2)N2CCN(C)CC2)c1 (stereo unspecified),"inconclusive: 6.51 µM [activator, single point]",
CCc1nc(C)cn1S(=O)(=O)c1cc(F)ccc1OC,inactive,
COc1ccc(Oc2cccc(Cl)c2CNC(=O)CCCC(=O)O)cc1,"inconclusive: 6.51 µM [activator, partial curve, poor fit]",
CCS(=O)(=O)c1ccc2oc(Nc3ccc(C(C)C)cc3)nc2c1,inactive,
O=C(CC1CCCCC1)Nc1ccccc1-c1ccccc1,inactive,
COc1ccc(C(=O)NC2CCCc3c2cnn3-c2ccccc2F)cc1OC (stereo unspecified),"inconclusive: 0.259 µM [activator, full curve, poor fit]",
Cc1nn(-c2ccccc2)c(N)c1C1(O)C(=O)N(C(C)C)c2ccccc21 (stereo unspecified),"inconclusive: 25.9 µM [activator, single point]",
C/C(=N/Nc1nc(-c2ccccc2)c(CC(=O)O)s1)c1ccccc1,"inconclusive: 29.1 µM [activator, single point]",
COc1cc(CN2CCN(c3cccc(C)c3C)CC2)cc(OC)c1O,inactive,
O=C(/C=C/c1ccncc1)c1ccc(NC(=O)c2ccccc2F)cc1,active: 4.11 µM,
CN(C)CCNC(=O)C(=O)Nc1ccc2c(c1)N(S(=O)(=O)c1cccs1)CCC2,active: 18.4 µM,
Cc1c(C(=O)N2CCC(C)CC2)sc2ncn(CC(=O)N3CCC(C)CC3)c(=O)c12,"inconclusive: 1.3 µM [activator, partial curve, poor fit]",
CN(C)c1nc(Nc2ccc(F)cc2)nc(Oc2ccc(F)cc2)n1,inactive,
Cc1cccc(C)c1OCC(=O)N=Nc1c(O)[nH]c2ccc(Br)cc12,"inconclusive: 20.6 µM [activator, single point]",
O=C1/C(=C\c2ccc(O)c(O)c2)SC(=S)N1Cc1ccccc1,"inconclusive: 3.55 µM [activator, single point]",
COC(=O)c1nc2ccccn2c1F,"inconclusive: 0.184 µM [activator, single point]",
CCCCn1c(N)c(N(CCOC)C(=O)CC(NC(=O)c2ccccc2Cl)c2ccccc2)c(=O)[nH]c1=O (stereo unspecified),inactive,

# Some of the entries so far, tab-delimited:
Compound	Potency	re-replication activation
COc1ccc(C(=O)NC2CCCc3c2cnn3-c2ccccc2F)cc1OC (stereo unspecified)	inconclusive: 0.259 µM [activator, full curve, poor fit]	
Cc1nn(-c2ccccc2)c(N)c1C1(O)C(=O)N(C(C)C)c2ccccc21 (stereo unspecified)	inconclusive: 25.9 µM [activator, single point]	
C/C(=N/Nc1nc(-c2ccccc2)c(CC(=O)O)s1)c1ccccc1	inconclusive: 29.1 µM [activator, single point]	

# Remaining list, next part.

Compound,Potency,re-replication activation
COc1ccc2[nH]c3c(=O)n(/N=C/[C@H]4C(C)C=C(C)CC4C)c(=O)[nH]c3c2c1 (stereo partly specified),active: 18.4 µM,
Cc1ccc(C(C)C)c(OCC(O)CN2CCOCC2)c1 (stereo unspecified),inactive,
CCCNC(=O)C(Cc1ccc(Cl)cc1)NC(=O)c1ccc(-c2ccccc2)cc1 (stereo unspecified),"inconclusive: 0.0326 µM [activator, full curve, poor fit]",
O=C(N/N=C/c1ccc(N2CCCCC2)o1)c1ccccc1[N+](=O)[O-],active: 7.31 µM,
O=C(Nc1nnc(CCOCCOCCc2nnc(NC(=O)c3ccco3)s2)s1)c1ccco1,"inconclusive: 32.6 µM [activator, partial curve, poor fit]",
Cc1ccc(N2CC(=O)Nc3c(sc4nc(C)cc(C)c34)C2=O)cc1,inactive,
CC(C)c1ccc(/C=C/C(=O)Nc2nc3ccc([N+](=O)[O-])cc3s2)cc1,inactive,
COc1ccc(CN2C(=O)CSCC2=O)cc1OC,inactive,
CNc1cccc2c1C(=O)c1ccccc1C2=O,inactive,
CCOc1ccccc1CN1CCN(C/C=C/c2ccc(OC)cc2)CC1CCO (stereo unspecified),"inconclusive: 18.4 µM [activator, partial curve, poor fit]",
COc1ccc(/C=C/c2nc(-c3ccccc3O)n(-c3ccccc3)n2)cc1,"inconclusive: 2.06 µM [activator, partial curve, poor fit]",
N#Cc1cccn1-c1nccc(-c2cccs2)n1,"inconclusive: 32.6 µM [activator, partial curve, poor fit]",
N#Cc1cccc(NC(=O)CNc2cc(S(=O)(=O)N3CCOCC3)ccc2N2CCCC2)c1,inactive,
O=C(CSc1nc2c(cnn2-c2ccccc2)c(=O)[nH]1)NC1CCS(=O)(=O)C1 (stereo unspecified),"inconclusive: 18.4 µM [activator, single point]",
COc1ccc2cc3cc(C(=O)NCc4ccco4)oc3nc2c1,inactive,
CC(C)(C)NC(=O)c1cc(-c2ccc3c(c2)OCO3)nc2ccccc12,"inconclusive: 29.1 µM [activator, single point]",
Cc1nnc(SC2CC(=O)N(c3ccccc3)C2=O)s1 (stereo unspecified),"inconclusive: 25.9 µM [activator, single point]",
CCOc1ccc(/C=N/NC(=O)C(O)c2ccccc2)c(O)c1 (stereo unspecified),"inconclusive: 2.91 µM [activator, full curve, poor fit]",
COc1ccc(C(=O)NCCS(=O)(=O)NCc2ccccc2)cc1,inactive,
CC1=C(C(=O)Nc2ccccn2)C(c2ccccc2)n2ncnc2N1 (stereo unspecified),inactive,
Cc1nn(C)cc1C(=O)Nc1cc(Oc2ccc(Cl)cc2)cc([N+](=O)[O-])c1,inactive,
CCOP(=O)(OCC)C(NC(=O)c1cccs1)C(F)(F)F (stereo unspecified),"inconclusive: 29.1 µM [activator, single point]",
COc1cccc(CNC(=O)COC(=O)CCS(=O)(=O)c2ccc(C)cc2)c1,"inconclusive: 20.6 µM [activator, single point]",
Cc1onc(-c2ccccc2)c1C(=O)N/N=C/c1ccc([N+](=O)[O-])s1,"inconclusive: 16.4 µM [activator, partial curve]",

Compound,Potency,re-replication activation
C=CCN1CCN(C(c2ccc(Cl)cc2)c2nnnn2CCc2ccc(OC)c(OC)c2)CC1 (stereo unspecified),,inactive: 0.019% [at 9.22 µM]
Cc1ccc2c(c1)C(=O)C(=O)N2CC(=O)OC(C)C,"inconclusive: 29.1 µM [activator, partial curve, poor fit]",
Fc1ccc(CSc2nncn2NC/C=C/c2ccccc2)cc1,"inconclusive: 2.91 µM [activator, partial curve, poor fit]",
COc1ccccc1N(Cc1ccccc1)S(=O)(=O)c1cccc(C(=O)Nc2ccccn2)c1,"inconclusive: 23.1 µM [activator, single point]",
COc1cc(C(=O)NC(=S)NNC(=O)c2cnccn2)cc(OC)c1OC,"inconclusive: 2.91 µM [activator, full curve, poor fit]",
CC(C)C(O)(C#CCN1CCCCCC1)c1ccccc1 (stereo unspecified),inactive,
CCOC(=O)C1=C(CSc2nc3c(cc2C#N)CN(C)CC3)OC(N)=C(C#N)C1c1ccncc1 (stereo unspecified),"inconclusive: 7.31 µM [activator, partial curve, poor fit]",
O=C(CNC(=O)c1ccccc1O)N/N=C/c1cc(Br)ccc1OC(=O)/C=C/c1ccco1,"inconclusive: 23.1 µM [activator, single point]",
COc1ccc(CN2[C@@H](CC(=O)O)c3ccccc3S2(=O)=O)cc1,inactive,
CN(C)S(=O)(=O)c1ccc(N2CCCC2)c(C(=O)NCCc2ccc(F)cc2)c1,"inconclusive: 29.1 µM [activator, single point]",
Cc1cc(C)n(C(=O)C2CCCN2S(=O)(=O)c2ccc(Cl)cc2)n1 (stereo unspecified),inactive,
O=C(Nc1cccc(-c2ccc(N3CCOCC3)nn2)c1)c1ccccc1,inactive,
Cc1ccc(C)c(-c2nnc(NC(=O)c3ccco3)o2)c1,"inconclusive: 23.1 µM [activator, partial curve, poor fit]",
CC(/C=N/Nc1nc2ccccc2[nH]1)=C\c1ccccc1,"inconclusive: 29.1 µM [activator, partial curve, poor fit]",
COc1ccc(/C=N/NC(=O)CCSc2nc3ccccc3s2)cc1OC,"inconclusive: 18.4 µM [activator, single point]",
O=C(OCC(=O)N1CCCC1=O)c1nc(Cl)c(Cl)c(Cl)c1Cl,"inconclusive: 29.1 µM [activator, single point]",
CCOc1ccc(CNC(=O)c2cccc(NC(=O)C3=C(C)OCCS3)c2)cc1,inactive,
O=S(=O)(Oc1ccccc1)c1ccc(Cl)c(Cl)c1,inactive,
CCCC1(C)NC(=O)c2ccccc2O1 (stereo unspecified),"inconclusive: 4.61 µM [activator, full curve, poor fit]",
O=C(CSc1nnc(-c2cccs2)o1)c1cccs1,"inconclusive: 25.9 µM [activator, single point]",
COc1ccccc1C(=O)N=c1sc2c(C)ccc(OC)c2n1C,"inconclusive: 23.1 µM [activator, single point]",
Clc1ccc2[nH]c3c(NCCCN4CCOCC4)ncnc3c2c1,"inconclusive: 20.6 µM [activator, single point]",
CC1(C)CC(N=Cc2c(O)n(Cc3ccc4c(c3)OCO4)c(=O)c3ccccc23)CC(C)(C)N1,"inconclusive: 16.4 µM [activator, single point]",
